This is an account of results in patent EP3925626A1 (priority 2020, dated 2021).

For some of these results: Strings that start with PEPTIDE1 are HELM notation: dots part the residues, brackets hold end groups and non-standard residues.

Data set [1] is described as follows: general procedure: Fmoc solid-phase peptide synthesis; 2-chlorotrityl; DIPCI/HOBt; TBTU/HOBt/DIPEA for fragment coupling. Particulars: whole synthesis, RP-HPLC, scale 1.310 mmol, trifluoroacetate salt.
Data set [2] can be described thus: general procedure: Fmoc solid-phase peptide synthesis; 2-chlorotrityl chloride; DIPCI/HOBt; TBTU/HOBt/DIPEA for fragment coupling. Particulars: whole synthesis, trifluoroacetate salt.
Data set [3] is described as follows: general procedure: Fmoc solid-phase peptide synthesis; 2-chlorotrityl carrier; aminomethylpolystyrene carrier; DIPCI/HOBt; TBTU/HOBt/DIPEA for fragment coupling. To be noted: whole synthesis, trifluoroacetate salt; for final HPLC purity: RP-HPLC; for final HPLC purity / isolated yield: scale of the general procedure 0.345 mmol, 1.310 mmol, 0.395-1.185 mmol.
A short description of data set [4]: general procedure: Fmoc solid-phase peptide synthesis; aminomethylpolystyrene; DIPCI/HOBt; TBTU/HOBt/DIPEA for fragment coupling. Particulars: whole synthesis, trifluoroacetate salt.

As to N^α-lauroyl-Gly-Pro-Hyp-Lys(Boc)-OH, in data set [1], the “crude purity (method not given)” value is reported as more than 95%.
On to “PEPTIDE1{[Lau].G.P.[Hyp].K.[am]}$$$$V2.0”, for which the crude mass in data set [2] is 355.5 mg. Moreover, in data set [3], the “final HPLC purity” value is “over 97%”, the isolated yield worked out at 73.0% and the isolated mass is 259.6 mg.
Take “N^α-lauroyl-Gly-Pro-Hyp-Lys-Gly-Hyp-Hyp-Lys-NH2”: in data set [3], the “final HPLC purity” value is reported as “over 95%”, the isolated yield is given as 75.0% and the isolated mass was determined as 111.4 mg. Further, the crude mass in data set [3] (scale 0.173 mmol) is recorded as 148.5 mg.
Take “PEPTIDE1{[Lau].G.[Hyp].[Hyp].K.[am]}$$$$V2.0”: in data set [3], the “final HPLC purity” value was “over 97%”, the isolated yield is on record as 59.0% and the isolated mass was found to be 133.6 mg. The crude mass in data set [4] was 226.5 mg.
